Some compounds share one wording; it may come from a single statement.

Common to all, as to settings: 5-level grade A-E
Data set [1] can be described thus: Variation (coefficient of variation of mobility of 30 elements).
A short description of data set [2]: Quality of coating film (average domain size, polarization microscope).
A short description of data set [3]: Threshold voltage shift after repeated driving (threshold shift).

On to `CCCc1ccc2c(c1)sc1c2ccc2c3ccc(CCC)cc3sc21` [Compound example 1], for which, in data set [1], the Variation result is “B (Equal to or greater than 30% but less than 50%)”. The “Quality of coating film” value in data set [2] is on record as “C (The average domain size was greater than 1 μm but equal to or less than 5 μm.)”. For the same molecule, in data set [3], the Threshold shift result is on record as “B (1 V<|Vafter−Vbefore|≦5 V)”.
Turning to `CCCCCc1ccc2c(c1)sc1c2ccc2c3ccc(CCCCC)cc3sc21` [Compound example 3], the Variation entry in data set [1] is “A (Less than 30%)”. Moreover, the “Quality of coating film” value in data set [2] was “A (The average domain size was greater than 10 μm.)”. Further, the Threshold shift result in data set [3] is recorded as “A (|Vafter−Vbefore|≦1 V)”.
For `CCCCCCCCc1ccc2c(c1)sc1c2ccc2c3ccc(CCCCCCCC)cc3sc21` [Compound example 6], the Variation result in data set [1] is on record as “A (Less than 30%)”. Moreover, the “Quality of coating film” value in data set [2] is “A (The average domain size was greater than 10 μm.)”. Moreover, the Threshold shift entry in data set [3] was “A (|Vafter−Vbefore|≦1 V)”.
Regarding `CCCCCCCCCCCCc1ccc2c(c1)sc1c2ccc2c3ccc(CCCCCCCCCCCC)cc3sc21` [Compound example 10], the Variation entry in data set [1] is “A (Less than 30%)”. The “Quality of coating film” value in data set [2] is “A (The average domain size was greater than 10 μm.)”. Besides, the Threshold shift entry in data set [3] is on record as “A (|Vafter−Vbefore|≦1 V)”.
As to `CCCCCCCCCCCCCCCCCCc1ccc2c(c1)sc1c2ccc2c3ccc(CCCCCCCCCCCCCCCCCC)cc3sc21` [Compound example 16], in data set [1], the Variation entry is given as “B (Equal to or greater than 30% but less than 50%)”. Besides, the “Quality of coating film” value in data set [2] is given as “C (The average domain size was greater than 1 μm but equal to or less than 5 μm.)”. Also, the Threshold shift entry in data set [3] was “B (1 V<|Vafter−Vbefore|≦5 V)”.
In the case of `CCCCCCCCc1ccc2cc3c(cc2c1)sc1c3ccc2c3cc4ccc(CCCCCCCC)cc4cc3sc21` [Compound example 20], the Variation result in data set [1] is recorded as “A (Less than 30%)”. Moreover, the “Quality of coating film” value in data set [2] is given as “A (The average domain size was greater than 10 μm.)”. The Threshold shift entry in data set [3] is reported as “A (|Vafter−Vbefore|≦1 V)”.
The corresponding values for `CCCCCCCCCCCCc1ccc2cc3c(cc2c1)sc1c3ccc2c3cc4ccc(CCCCCCCCCCCC)cc4cc3sc21` [Compound example 24] are “A (Less than 30%)”, “A (The average domain size was greater than 10 μm.)” and “A (|Vafter−Vbefore|≦1 V)”.
For `CCCCCCCCc1ccc(-c2ccc3c(c2)sc2c3ccc3c4ccc(-c5ccc(CCCCCCCC)cc5)cc4sc32)cc1` [Compound example 34], in that order: “A (Less than 30%)”, “B (The average domain size was greater than 5 μm but equal to or less than 10 μm.)” and “B (1 V<|Vafter−Vbefore|≦5 V)”.
The corresponding values for `CCCCCCCCc1ccc(-c2ccc3c(c2)sc2c3ccc3c4ccc(-c5ccc(CCCCCCCC)s5)cc4sc32)s1` [Compound example 62] are “A (Less than 30%)”, “B (The average domain size was greater than 5 μm but equal to or less than 10 μm.)” and “B (1 V<|Vafter−Vbefore|≦5 V)”.
On to `CCCCCCCC/C=C/c1ccc2c(c1)sc1c2ccc2c3ccc(/C=C/CCCCCCCC)cc3sc21` [Compound example 298], for which the Variation result in data set [1] is listed as “A (Less than 30%)”. The “Quality of coating film” value in data set [2] was “A (The average domain size was greater than 10 μm.)”. The Threshold shift entry in data set [3] is recorded as “B (1 V<|Vafter−Vbefore|≦5 V)”.
As to `CCCCCCC#Cc1ccc2c(c1)sc1c2ccc2c3ccc(C#CCCCCCC)cc3sc21` [Compound example 310], the Variation entry in data set [1] is given as “A (Less than 30%)”. In addition, the “Quality of coating film” value in data set [2] was “A (The average domain size was greater than 10 μm.)”. Further, the Threshold shift entry in data set [3] is “B (1 V<|Vafter−Vbefore|≦5 V)”.
As for `CCCCCCCCOc1ccc2c(c1)sc1c2ccc2c3ccc(OCCCCCCCC)cc3sc21` [Compound example 326], in data set [1], the Variation entry is reported as “A (Less than 30%)”. Besides, the “Quality of coating film” value in data set [2] is on record as “A (The average domain size was greater than 10 μm.)”. Moreover, in data set [3], the Threshold shift result was “B (1 V<|Vafter−Vbefore|≦5 V)”.
The corresponding values for `CCCCCCCCCCCCc1ccc2cc3c(cc2c1)sc1c3ccc2c3ccc(CCCCCCCCCCCC)cc3sc21` [Compound example 344] are “C (Equal to or greater than 50% but less than 100%)”, “C (The average domain size was greater than 1 μm but equal to or less than 5 μm.)” and “C (5 V<|Vafter−Vbefore|≦10 V)”.
As to `CCCCCCCCCCCCc1ccc2c(c1)sc1c2ccc2c3ccccc3sc21` [Compound example 358], the Variation entry in data set [1] was “C (Equal to or greater than 50% but less than 100%)”. Moreover, in data set [2], the “Quality of coating film” value is reported as “C (The average domain size was greater than 1 μm but equal to or less than 5 μm.)”. Also, in data set [3], the Threshold shift result is given as “C (5 V<|Vafter−Vbefore|≦10 V)”.
For `CCCCCCCCCCCCc1ccc(-c2ccc3c(c2)sc2c3ccc3c4ccccc4sc32)cc1` [Compound example 372], in that order: “C (Equal to or greater than 50% but less than 100%)”, “C (The average domain size was greater than 1 μm but equal to or less than 5 μm.)” and “C (5 V<|Vafter−Vbefore|≦10 V)”.
For `CCCCCCCCCCCCc1ccc(-c2ccc3c(c2)sc2c3ccc3c4ccccc4sc32)s1` [Compound example 386], in that order: “C (Equal to or greater than 50% but less than 100%)”, “C (The average domain size was greater than 1 μm but equal to or less than 5 μm.)” and “C (5 V<|Vafter−Vbefore|≦10 V)”.
For `CCCCCCCCc1ccc2sc3c(ccc4c5cc(CCCCCCCC)ccc5sc43)c2c1` [Compound example 396], in that order: “B (Equal to or greater than 30% but less than 50%)”, “C (The average domain size was greater than 1 μm but equal to or less than 5 μm.)” and “B (1 V<|Vafter−Vbefore|≦5 V)”.
In the case of `CCCCC(CC)Cc1ccc2c(c1)sc1c2ccc2c3ccc(CC(CC)CCCC)cc3sc21` (stereo not drawn) [Compound example 407], in data set [1], the Variation entry was “A (Less than 30%)”. The “Quality of coating film” value in data set [2] is on record as “A (The average domain size was greater than 10 μm.)”. The Threshold shift result in data set [3] is reported as “A (|Vafter−Vbefore|≦1 V)”.
As to `CCCCCCCCc1ccc2c(c1)oc1c2ccc2c3ccc(CCCCCCCC)cc3oc21` [Compound example 416], the Variation result in data set [1] is “C (Equal to or greater than 50% but less than 100%)”. The “Quality of coating film” value in data set [2] was “C (The average domain size was greater than 1 μm but equal to or less than 5 μm.)”. In addition, the Threshold shift result in data set [3] was “C (5 V<|Vafter−Vbefore|≦10 V)”.
The corresponding values for `C[Si](C)(C)C#Cc1c(C#C[Si](C)(C)C)c2c3ccc(-c4cccs4)cc3sc2c2sc3cc(-c4cccs4)ccc3c12` [Compound example 427] are “C (Equal to or greater than 50% but less than 100%)”, “C (The average domain size was greater than 1 μm but equal to or less than 5 μm.)” and “C (5 V<|Vafter−Vbefore|≦10 V)”.
For `c1ccc2c(c1)sc1c2ccc2c3ccccc3sc21` [comparative compound 1, reference compound], in that order: “E (Equal to or greater than 200%)”, “E (The average domain size was equal to or less than 0.5 μm.)” and “C (5 V<|Vafter−Vbefore|≦10 V)”.
The corresponding values for `Cc1ccc2c(c1)sc1c2ccc2c3ccc(C)cc3sc21` [comparative compound 2, reference compound] are “E (Equal to or greater than 200%)”, “E (The average domain size was equal to or less than 0.5 μm.)” and “C (5 V<|Vafter−Vbefore|≦10 V)”.
As to `c1ccc2c(c1)sc1c2ccc2c3cccc(-c4ccc5c6ccccc6c6ccccc6c5c4)c3sc21` [comparative compound 6, reference compound], in data set [1], the Variation entry is recorded as “E (Equal to or greater than 200%)”. The “Quality of coating film” value in data set [2] is “E (The average domain size was equal to or less than 0.5 μm.)”. Further, the Threshold shift result in data set [3] was “D (10 V<|Vafter−Vbefore|≦15 V)”.
The corresponding values for `c1ccc(-c2cccc(-c3ccc4sc5c(ccc6c7cc(-c8cccc(-c9ccccc9)c8)ccc7sc65)c4c3)c2)cc1` [compound 3, reference compound] are “D (Equal to or greater than 100% but less than 200%)”, “C (The average domain size was greater than 1 μm but equal to or less than 5 μm.)” and “C (5 V<|Vafter−Vbefore|≦10 V)”.
For `c1ccc(-c2ccc3sc4c5sc6ccc(-c7ccccc7)cc6c5c(-c5ccccc5)c(-c5ccccc5)c4c3c2)cc1` [compound 4, reference compound], in that order: “D (Equal to or greater than 100% but less than 200%)”, “D (The average domain size was greater than 0.5 μm but equal to or less than 1 μm.)” and “C (5 V<|Vafter−Vbefore|≦10 V)”.

These data come from patent publication US20160343958A1, “ORGANIC TRANSISTOR, COMPOUND, ORGANIC SEMICONDUCTOR MATERIAL FOR NON-LIGHT-EMITTING ORGANIC SEMICONDUCTOR DEVICE, MATERIAL FOR ORGANIC TRANSISTOR, COATING SOLUTION FOR NON-LIGHT-EMITTING ORGANIC SEMICONDUCTOR DEVICE, AND ORGANIC SEMICONDUCTOR FILM FOR NON-LIGHT-EMITTING ORGANIC SEMICONDUCTOR DEVICE” (FUJIFILM Corporation, priority 2014, published 2016).
